Laboratory results published in PMC7819943, “Rice protein-binding microarrays: a tool to detect cis-acting elements near promoter regions in rice”.
The list shows a part of the results.

Amino acid sequences for entries named in this document (tags omitted).
UniProt Q0JBA9, entry or part of it: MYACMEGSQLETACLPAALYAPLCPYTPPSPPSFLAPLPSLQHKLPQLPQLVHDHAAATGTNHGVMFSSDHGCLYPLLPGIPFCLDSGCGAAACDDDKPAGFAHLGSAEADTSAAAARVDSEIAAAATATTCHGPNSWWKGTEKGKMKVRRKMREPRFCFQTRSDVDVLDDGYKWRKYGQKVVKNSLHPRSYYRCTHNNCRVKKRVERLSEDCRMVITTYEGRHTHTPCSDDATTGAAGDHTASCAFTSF

Each sequence was assayed against OsWRKY34 (Oryza sativa, UniProt Q0JBA9 1-250) (assay: protein-binding microarray (RPBM); PBS, 2% BSA, 51.3 ng/ul salmon testes DNA, 50 uM zinc acetate, 200 nM TF, 25 C, 1 h; high values mean tight binding). Details: protein: recombinant; tags: N-terminal polyhistidine and DsRed monomer fusion (pET32a); label: CyDye5-dUTP incorporated in the synthesized complementary strand; 3' TTTTT single-stranded linker to array surface; dsDNA, one strand shown.
In short: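 A custom Agilent array was converted to double-stranded form by primer extension with Cy5-dUTP and blocked with 2% BSA. Protein at 200 nM in PBS with 2% BSA, salmon testes DNA and 50 µM zinc acetate was applied for 1 h at 25 °C, followed by washing. The proteins were polyhistidine–DsRed N-terminal fusions of transcription factors, expressed in E. coli BL21-CodonPlus and Ni–NTA-purified. The binding signal is per-feature fluorescence intensity (arbitrary units) from an Axon 4000B scanner.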

Sequence | binding signal
GGAGGGGTGGTTGGTGCCGAGGGAGGTGTGGTCGGTGCCGCGGAGTCACCTAGTGCAG | 9980 fluorescence intensity (a.u.)
CCAACCTCCTCAACACATCCAGGATTCTTACATATCATTCCGGAGTCACCTAGTGCAG | 8540 fluorescence intensity (a.u.)
CGCTCTCTCGCCTGCCGCCGCGCGCTCGCCGGCCTACCCGCGGAGTCACCTAGTGCAG | 8440 fluorescence intensity (a.u.)
TCCATTTTGTCCATACAATTTTGTTGCTACTACAGCACACCGGAGTCACCTAGTGCAG | 8430 fluorescence intensity (a.u.)
CATGAGGTGGGCTTTTGTGATTTTCCAAAGAATTAATCTTCGGAGTCACCTAGTGCAG | 8780 fluorescence intensity (a.u.)
CACATCTTCCTTTTTCTCAAGCTACATCTTCCTTTTTGTCCGGAGTCACCTAGTGCAG | 9600 fluorescence intensity (a.u.)
GATATGAAGCATTTAATCTTGCCCTTGCATATTTACTAGACGGAGTCACCTAGTGCAG | 8120 fluorescence intensity (a.u.)
CCGGGGACACCGCCCTCGTCGTCGTCGCCTCCGGCGTCAGCGGAGTCACCTAGTGCAG | 8560 fluorescence intensity (a.u.)
TATTCTTTCTATATGTCTCATCAAAGATGTCCTTTTCCACCGGAGTCACCTAGTGCAG | 8880 fluorescence intensity (a.u.)
TTTATCCAAACCCTTGCGGCTGCGTGATCACCTCCTTCATCGGAGTCACCTAGTGCAG | 8530 fluorescence intensity (a.u.)
CTCTCAAGCTACATACTCCCAGTACTGCTTCATCTAGCTCCGGAGTCACCTAGTGCAG | 9380 fluorescence intensity (a.u.)
CCCAACTGCAGTCTACTCCTATTCTTTTTCAGTTTGGACTCGGAGTCACCTAGTGCAG | 8740 fluorescence intensity (a.u.)
ACACCTATTGTTTTCTAATTGGCTTACTAGCCACTACAAACGGAGTCACCTAGTGCAG | 9280 fluorescence intensity (a.u.)
GCCGTGTCCTTTTCGTGTGCCTCACATAATGTGTGTGTAACGGAGTCACCTAGTGCAG | 9220 fluorescence intensity (a.u.)
CCGTTTCCCGCCGCTGTCTCCCGCCGGAGCCGCCCCTGCTCGGAGTCACCTAGTGCAG | 9030 fluorescence intensity (a.u.)
AGAGGGAAAAGATGGAGGGGTATTTTTCATGCAGATCTTTCGGAGTCACCTAGTGCAG | 8210 fluorescence intensity (a.u.)
CGCCGTCGCCCATTTCGGCATGCGTTATCACCGCCGCCACCGGAGTCACCTAGTGCAG | 13000 fluorescence intensity (a.u.)
GGTTAAGGATTTTTTTAGTGGGCTGGGCTTTTTGGGCTTTCGGAGTCACCTAGTGCAG | 11400 fluorescence intensity (a.u.)
GGTGGAAGTCTTACATTTGCTGAAATTGTCTTGGGGAGAACGGAGTCACCTAGTGCAG | 10900 fluorescence intensity (a.u.)
TCTGTTCTTGGCGTTGAGATACATAGAGGCTTGGGGTGGGCGGAGTCACCTAGTGCAG | 9350 fluorescence intensity (a.u.)
ACGAATATAGGGAGGGGCATCACAGCTTTATTGCTTTAACCGGAGTCACCTAGTGCAG | 12500 fluorescence intensity (a.u.)

Part of the list above, as a markdown table.

| Sequence | binding signal |
| --- | --- |
| CACATCTTCCTTTTTCTCAAGCTACATCTTCCTTTTTGTCCGGAGTCACCTAGTGCAG | 9600 fluorescence intensity (a.u.) |
| GATATGAAGCATTTAATCTTGCCCTTGCATATTTACTAGACGGAGTCACCTAGTGCAG | 8120 fluorescence intensity (a.u.) |
| CCGGGGACACCGCCCTCGTCGTCGTCGCCTCCGGCGTCAGCGGAGTCACCTAGTGCAG | 8560 fluorescence intensity (a.u.) |
| TATTCTTTCTATATGTCTCATCAAAGATGTCCTTTTCCACCGGAGTCACCTAGTGCAG | 8880 fluorescence intensity (a.u.) |
| TTTATCCAAACCCTTGCGGCTGCGTGATCACCTCCTTCATCGGAGTCACCTAGTGCAG | 8530 fluorescence intensity (a.u.) |

Continued:

Sequence | binding signal
GTGGCGGTTTAGGAGCGTTTGTAGGAAGTTTAATTGACTTCGGAGTCACCTAGTGCAG | 8100 fluorescence intensity (a.u.)
AACACTGCCCAATTGCCCATGCTCCAGACTTCTTTCTACTCGGAGTCACCTAGTGCAG | 11900 fluorescence intensity (a.u.)
GCGCCCACGAACCTTGTCTTCAAGCAATCCCACACTTCCTCGGAGTCACCTAGTGCAG | 9490 fluorescence intensity (a.u.)
GTTGAACAGATATGTATAGTATTCCCTAACCGGGCTATTTCGGAGTCACCTAGTGCAG | 8460 fluorescence intensity (a.u.)
TGTACTGGCCGTTGATTCTGCAGATTCCGCGAATCGTGCGCGGAGTCACCTAGTGCAG | 8720 fluorescence intensity (a.u.)
CCATGCACCTCTCGTCGTCTTCCTGATTTCGCCGCCACTTCGGAGTCACCTAGTGCAG | 8450 fluorescence intensity (a.u.)
AACACCACACGCCGAGTCGACAATATATAACCCACGACACCGGAGTCACCTAGTGCAG | 8160 fluorescence intensity (a.u.)
CGGCGCCGCCACGTCGGATCCCCAACCGCTGAACCGTCCGCGGAGTCACCTAGTGCAG | 8440 fluorescence intensity (a.u.)
ACCACAATACTGGACCGCGTTATCACTCATCGGTGTCAACCGGAGTCACCTAGTGCAG | 8580 fluorescence intensity (a.u.)
AAAGTATTTTAAGCACAACTTTTCGTTTTTTATATTTGCACGGAGTCACCTAGTGCAG | 8930 fluorescence intensity (a.u.)
AAATAATTATCATGTTTGTGTCCATTCATTAAGTCTATTCCGGAGTCACCTAGTGCAG | 8020 fluorescence intensity (a.u.)
CTCTCTCCTCCTCCTTCCAGGTGTGCGTGTTGTACACGCGCGGAGTCACCTAGTGCAG | 8320 fluorescence intensity (a.u.)
TTGTTTATTTTATCAATTGACGTGTTCATGCAATCCACAACGGAGTCACCTAGTGCAG | 8570 fluorescence intensity (a.u.)
CTATTCATAGTCAAATTTGTTTATTTTGTTTCTACTTGTACGGAGTCACCTAGTGCAG | 8740 fluorescence intensity (a.u.)
TTACTCCACCAGTAGATTGGTTGGGTTGGGGTTGGGTTTGCGGAGTCACCTAGTGCAG | 11300 fluorescence intensity (a.u.)
ACACTGCCACTCTCTCCCTAGGCCTATAAATACCACCAGTCGGAGTCACCTAGTGCAG | 8340 fluorescence intensity (a.u.)
CCCTATTTCTGTATTCACTCGTTCATTGTACTTAATTTTTCGGAGTCACCTAGTGCAG | 13500 fluorescence intensity (a.u.)
ATTTTGGTACGTCATCCATATTTGAATCGGTTTTTAAGTTCGGAGTCACCTAGTGCAG | 8510 fluorescence intensity (a.u.)
ATTTTTGCAGTGTATTATGACTCATCTTTTTTTTTCAAATCGGAGTCACCTAGTGCAG | 8240 fluorescence intensity (a.u.)
CATACGGTGACACTTGGCATTAATCTAATTTAACTTTTTTCGGAGTCACCTAGTGCAG | 8550 fluorescence intensity (a.u.)
GGCGGCGGGCGATGAATCCTCCTCGGGGAGGGCGTGGCAACGGAGTCACCTAGTGCAG | 9870 fluorescence intensity (a.u.)

Sequence | binding signal
AATTTTTCTATAGGATTGAAATCCTCTTTACTATGTTTTTCGGAGTCACCTAGTGCAG | 8420 fluorescence intensity (a.u.)
ATGACATGCACCCGTACTAAGCTTTATGTAGATATCTCTACGGAGTCACCTAGTGCAG | 10400 fluorescence intensity (a.u.)
TGGTTCTGTGTCCAAGCTTAATATAAGTTTACAGCCCACTCGGAGTCACCTAGTGCAG | 9680 fluorescence intensity (a.u.)
TGGAAACTATGTCTAGTGTTATGGGTTGGGACTGCCCTAACGGAGTCACCTAGTGCAG | 8390 fluorescence intensity (a.u.)
ATATGTTATGTTTGAGTATATATGTTGCGTTTTAGTTTTACGGAGTCACCTAGTGCAG | 10700 fluorescence intensity (a.u.)
ACCTTTCACCCACCCACCACCACACCACAGCTACTTACCTCGGAGTCACCTAGTGCAG | 9430 fluorescence intensity (a.u.)
ACCTACGAACAACTCACCATTCTTGGCCGCATTTGCCTTTCGGAGTCACCTAGTGCAG | 8860 fluorescence intensity (a.u.)
TTGTAACGCACGGTTTTTTTTTTTGTCTAGTAAGCTAAAACGGAGTCACCTAGTGCAG | 8300 fluorescence intensity (a.u.)
CGAGTTTAATCTGCCAATTTGGGCTCCACATGACACACATCGGAGTCACCTAGTGCAG | 8600 fluorescence intensity (a.u.)
CTCCCGTCAGTTGACCGTGTGTTGACCGTTAATTCTCAAGCGGAGTCACCTAGTGCAG | 17500 fluorescence intensity (a.u.)
TAAAAAATTATATTGTACTACATTGTTTACATCACTTGTTCGGAGTCACCTAGTGCAG | 8240 fluorescence intensity (a.u.)
GGCGCCGCCGTCGTCCTGCTGCTTCCGCCGCCGCGTCTTCCGGAGTCACCTAGTGCAG | 11000 fluorescence intensity (a.u.)
TGTTGCGCCGTCACTCGTAGACTACTCCATCTCGCTCGCCCGGAGTCACCTAGTGCAG | 11200 fluorescence intensity (a.u.)
AGGGAGAGGGAGAGGAAGGGCGGGGACGCGGGAGACGATGCGGAGTCACCTAGTGCAG | 8510 fluorescence intensity (a.u.)
GTTGGTGGTGGTGGTGGAGGAGGCGGTGGTGGGATCGATGCGGAGTCACCTAGTGCAG | 23900 fluorescence intensity (a.u.)
TATTTGGCCTGGTTTAGTTCCCAATTTTTTTCCCAAAACACGGAGTCACCTAGTGCAG | 9390 fluorescence intensity (a.u.)
ACGTCTCGTATGGTTGTAGTCGGATCGTCAACGTTTCTCCCGGAGTCACCTAGTGCAG | 9290 fluorescence intensity (a.u.)
CCGCGCCCAACGCATCCGTCCCGTCGGTTCCGAACCCAACCGGAGTCACCTAGTGCAG | 9890 fluorescence intensity (a.u.)
GTACGTCATCAGTATTTAAGTCGGTTTTTAAGCTCGTTCGCGGAGTCACCTAGTGCAG | 9540 fluorescence intensity (a.u.)
GTTTTGCACATCCGGTTTTCTCTCTCTCTCTCTCTCCTTTCGGAGTCACCTAGTGCAG | 16700 fluorescence intensity (a.u.)
GAGTATATAGTTTTAGACTTTTAGTGTGTTCCTTCCAATACGGAGTCACCTAGTGCAG | 8540 fluorescence intensity (a.u.)

Sequence | binding signal
AGGTTGAGTTCTTCCCCGAGTGCACCTGTTATTTTCCCGTCGGAGTCACCTAGTGCAG | 8540 fluorescence intensity (a.u.)
ATGCAAACAAAAACCAGACGAAATATAAACTCAAACCATACGGAGTCACCTAGTGCAG | 10400 fluorescence intensity (a.u.)
GTCTCGTCTTGCTGTTCTAGAAGATTTCTCTTCGCGTCGCCGGAGTCACCTAGTGCAG | 10500 fluorescence intensity (a.u.)
TATTCGAATCACCCATTCTTTTTTCTTTATTCAATCTGTCCGGAGTCACCTAGTGCAG | 8550 fluorescence intensity (a.u.)
TCTTGGTTTTTTGCATTGTTTCCTCCCGATTTGTCTTCCTCGGAGTCACCTAGTGCAG | 13100 fluorescence intensity (a.u.)
ATTGTGTGCAACTTTTGTTATGTGTCTGTCCTCCATCTTCCGGAGTCACCTAGTGCAG | 10800 fluorescence intensity (a.u.)
AGAGTGTTTTGTGTTTTTTAGTGTTATTAAAGAAGTTGTTCGGAGTCACCTAGTGCAG | 8500 fluorescence intensity (a.u.)
CTTGCCACATCATTTTTCATTCTAGGTGACAGCTTATTTACGGAGTCACCTAGTGCAG | 9390 fluorescence intensity (a.u.)
TCACACCTCCTCCTTTCTCTAGCACTCTTTCGTTCGTGTCCGGAGTCACCTAGTGCAG | 8600 fluorescence intensity (a.u.)
GGTTTCCTTTTGTCCTTTCAGATCTCTCTCTCTCTCTCTCCGGAGTCACCTAGTGCAG | 11400 fluorescence intensity (a.u.)
GTTATTTATAAATTTGATAGTATCCTGATTTTATGATTGTCGGAGTCACCTAGTGCAG | 10300 fluorescence intensity (a.u.)
TGAGTCTTCACAATCCCATGTCACATGATCATGTGATCTTCGGAGTCACCTAGTGCAG | 9860 fluorescence intensity (a.u.)
CCCGCGCGCCATCATATCGTCCTCGAGCCCCGTGCGCCATCGGAGTCACCTAGTGCAG | 10200 fluorescence intensity (a.u.)
TCTCACTCTCGAGCCATCGTCTTCAGCTCGCTCATTACTGCGGAGTCACCTAGTGCAG | 9030 fluorescence intensity (a.u.)
TACTCCTTATATTCCTTCATTTTTCAGCCTCGATCAGCTCCGGAGTCACCTAGTGCAG | 8130 fluorescence intensity (a.u.)
CTCCCTCCTCCTGCCTCGCGCCACCTTCGCCGCCACCACCCGGAGTCACCTAGTGCAG | 8530 fluorescence intensity (a.u.)
CATTTAGCTAAAAGAACATATCTTCATCTTATATTTCTTTCGGAGTCACCTAGTGCAG | 8990 fluorescence intensity (a.u.)
TACATATCCGCTTTTCAGCCTATCCAGTTTGATTAAGAAACGGAGTCACCTAGTGCAG | 8330 fluorescence intensity (a.u.)
TATACCTTTTCAGCTCTGTTTCGAAGAAAGATTTTTCTTTCGGAGTCACCTAGTGCAG | 8180 fluorescence intensity (a.u.)
TTGGATCTGCTCTCTGTTCTTATCGCTGTGCGTGTGTGTGCGGAGTCACCTAGTGCAG | 8320 fluorescence intensity (a.u.)
ATTGGTCAAATTTTAAATATTGATTTGCTTAGACTTCTTACGGAGTCACCTAGTGCAG | 8170 fluorescence intensity (a.u.)

2 entries drawn at random from those above, as already listed:
Sequence | binding signal
AGGTTGAGTTCTTCCCCGAGTGCACCTGTTATTTTCCCGTCGGAGTCACCTAGTGCAG | 8540 fluorescence intensity (a.u.)
CATTTAGCTAAAAGAACATATCTTCATCTTATATTTCTTTCGGAGTCACCTAGTGCAG | 8990 fluorescence intensity (a.u.)
